Results from patent publication US20140315972A1, “RS)-2-(2-oxo-4-phenylpyrrolidin-1-yl)acetamide compound having modulatory activity with a commensurate effect, pharmaceutical substance (variants) and its application, composition (variants) thereof” (priority 2011, published 2014).
Some results were stated once for a whole list of compounds, not compound by compound.

Test system: rabbits
Test: Transcallosal stimulation induced potential (TSIP)
Format: in vivo
Details: Piracetam 300-500, Pyritinol 50-150, Phenotropil 25-300 mg/kg

Row | SMILES | TSIP P1 + N1 amplitude | TSIP component N1 amplitude | TSIP component P1 amplitude | TSIP component P2 amplitude
1 | NC(=O)CN1CC(c2ccccc2)CC1=O (racemic) [Compound 1, (RS)-2-(2-oxo-4-phenylpyrrolidine-1-yl)acetamide] | ± (biphasic effect, less than 50% but not less than 20%) | ± (biphasic effect, less than 50% but not less than 20%) | ± (biphasic effect, less than 50% but not less than 20%) | ± (biphasic effect, less than 50% but not less than 20%)
2 | NC(=O)CN1CC(c2ccccc2)CC1=O (racemic) [Compound 3, (RS)-2-(2-oxo-4-phenylpyrrolidin-1-yl)acetamide] | ± (biphasic effect, less than 50% but not less than 20%) | ± (biphasic effect, less than 50% but not less than 20%) | ± (biphasic effect, less than 50% but not less than 20%) | ± (biphasic effect, less than 50% but not less than 20%)
